This note sets out measurements from patent US5262519A (The Salk Institute for Biological Studies, priority 1991, dated 1993).

Strings that start with PEPTIDE1 are HELM notation: dots part the residues, brackets hold end groups and non-standard residues.

A short description of the series: Boc solid-phase peptide synthesis; MBHA resin; DCCI (HOBt for Asn/Gln). The following applies: whole synthesis, HPLC; confirmed by mass spectroscopy and capillary zone electrophoresis.

Turning to “PEPTIDE1{Y.A.D.A.I.F.T.A.S.Y.R.K.V.L.G.Q.L.S.A.R.K.L.L.Q.D.I.[Nle].S.R.[am]}$$$$V2.0”, the “final purity (method not given)” value was “greater than about 95%”.
